This is one part of the list. Most entries show no effect beyond the scatter of the controls.

Amino acid sequences for entries named in this document (tags omitted). A change or cut given only in a name is not applied to a line headed by its entry.
UniProt P50284: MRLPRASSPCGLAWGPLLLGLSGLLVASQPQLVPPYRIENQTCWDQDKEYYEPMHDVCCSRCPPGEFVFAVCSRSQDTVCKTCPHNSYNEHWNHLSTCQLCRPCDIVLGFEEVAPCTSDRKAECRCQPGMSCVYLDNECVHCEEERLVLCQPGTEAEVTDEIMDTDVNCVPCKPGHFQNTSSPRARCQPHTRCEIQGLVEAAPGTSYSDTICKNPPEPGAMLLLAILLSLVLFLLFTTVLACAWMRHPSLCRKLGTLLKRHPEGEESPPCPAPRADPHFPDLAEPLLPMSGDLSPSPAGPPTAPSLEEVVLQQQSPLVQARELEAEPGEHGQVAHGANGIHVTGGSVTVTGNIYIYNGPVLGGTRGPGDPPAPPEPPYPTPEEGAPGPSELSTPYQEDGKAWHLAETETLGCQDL
UniProt P50636: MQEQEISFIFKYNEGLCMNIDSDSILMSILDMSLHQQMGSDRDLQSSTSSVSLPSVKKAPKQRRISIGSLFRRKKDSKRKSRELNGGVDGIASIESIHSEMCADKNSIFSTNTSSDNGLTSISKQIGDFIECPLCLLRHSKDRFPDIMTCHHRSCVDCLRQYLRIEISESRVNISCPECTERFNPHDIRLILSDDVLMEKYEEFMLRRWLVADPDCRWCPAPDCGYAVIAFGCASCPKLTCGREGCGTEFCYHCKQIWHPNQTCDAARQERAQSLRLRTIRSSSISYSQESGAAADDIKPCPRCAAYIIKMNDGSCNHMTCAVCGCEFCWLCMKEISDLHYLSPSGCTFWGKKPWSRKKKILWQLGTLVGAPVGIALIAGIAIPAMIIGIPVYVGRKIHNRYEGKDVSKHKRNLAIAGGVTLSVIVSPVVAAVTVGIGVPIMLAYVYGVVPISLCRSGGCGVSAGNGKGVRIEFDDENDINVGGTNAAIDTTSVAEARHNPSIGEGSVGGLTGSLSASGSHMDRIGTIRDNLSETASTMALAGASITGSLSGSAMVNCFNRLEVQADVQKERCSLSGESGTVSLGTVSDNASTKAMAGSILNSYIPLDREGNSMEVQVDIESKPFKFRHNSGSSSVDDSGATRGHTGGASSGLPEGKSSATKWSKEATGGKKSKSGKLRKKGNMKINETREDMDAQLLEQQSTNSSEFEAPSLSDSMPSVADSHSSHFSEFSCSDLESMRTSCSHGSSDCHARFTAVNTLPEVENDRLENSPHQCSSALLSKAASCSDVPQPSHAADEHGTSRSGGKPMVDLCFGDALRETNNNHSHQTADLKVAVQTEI
UniProt P53564: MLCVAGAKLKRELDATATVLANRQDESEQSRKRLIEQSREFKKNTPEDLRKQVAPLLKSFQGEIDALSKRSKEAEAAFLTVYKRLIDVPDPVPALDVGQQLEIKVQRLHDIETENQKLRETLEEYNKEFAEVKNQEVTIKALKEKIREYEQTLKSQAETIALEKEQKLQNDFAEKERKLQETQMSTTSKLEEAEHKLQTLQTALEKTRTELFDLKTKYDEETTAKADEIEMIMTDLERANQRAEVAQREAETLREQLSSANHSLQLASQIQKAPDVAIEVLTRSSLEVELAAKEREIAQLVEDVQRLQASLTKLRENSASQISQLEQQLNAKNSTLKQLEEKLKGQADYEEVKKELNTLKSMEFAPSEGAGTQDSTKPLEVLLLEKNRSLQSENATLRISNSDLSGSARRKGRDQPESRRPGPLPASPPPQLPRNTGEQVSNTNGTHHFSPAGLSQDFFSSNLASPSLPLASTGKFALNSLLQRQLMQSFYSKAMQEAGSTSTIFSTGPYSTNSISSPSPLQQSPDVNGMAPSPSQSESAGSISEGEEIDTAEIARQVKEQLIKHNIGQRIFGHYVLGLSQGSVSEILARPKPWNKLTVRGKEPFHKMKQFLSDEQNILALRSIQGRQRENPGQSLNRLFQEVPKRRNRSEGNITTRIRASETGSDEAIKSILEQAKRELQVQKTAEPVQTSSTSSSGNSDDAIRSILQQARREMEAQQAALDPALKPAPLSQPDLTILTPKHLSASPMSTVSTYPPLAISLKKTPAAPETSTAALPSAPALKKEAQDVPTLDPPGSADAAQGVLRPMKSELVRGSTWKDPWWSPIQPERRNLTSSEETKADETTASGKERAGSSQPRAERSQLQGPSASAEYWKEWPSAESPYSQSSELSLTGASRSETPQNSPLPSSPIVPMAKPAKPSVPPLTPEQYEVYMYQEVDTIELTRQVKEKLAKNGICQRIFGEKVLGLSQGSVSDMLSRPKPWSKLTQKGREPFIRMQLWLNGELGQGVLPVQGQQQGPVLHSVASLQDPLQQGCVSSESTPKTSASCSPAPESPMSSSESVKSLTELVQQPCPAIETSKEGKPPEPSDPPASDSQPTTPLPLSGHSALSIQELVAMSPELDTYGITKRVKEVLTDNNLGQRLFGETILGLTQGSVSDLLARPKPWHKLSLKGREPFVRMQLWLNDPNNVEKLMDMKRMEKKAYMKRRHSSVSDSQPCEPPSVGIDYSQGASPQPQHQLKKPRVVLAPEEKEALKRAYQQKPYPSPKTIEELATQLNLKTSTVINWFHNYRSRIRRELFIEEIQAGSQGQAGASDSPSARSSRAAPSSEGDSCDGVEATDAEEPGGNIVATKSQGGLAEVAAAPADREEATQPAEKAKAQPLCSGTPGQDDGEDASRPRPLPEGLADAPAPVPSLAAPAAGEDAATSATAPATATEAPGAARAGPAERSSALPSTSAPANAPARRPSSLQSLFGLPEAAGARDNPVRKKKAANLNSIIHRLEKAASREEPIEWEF
UniProt P48193, whole entry: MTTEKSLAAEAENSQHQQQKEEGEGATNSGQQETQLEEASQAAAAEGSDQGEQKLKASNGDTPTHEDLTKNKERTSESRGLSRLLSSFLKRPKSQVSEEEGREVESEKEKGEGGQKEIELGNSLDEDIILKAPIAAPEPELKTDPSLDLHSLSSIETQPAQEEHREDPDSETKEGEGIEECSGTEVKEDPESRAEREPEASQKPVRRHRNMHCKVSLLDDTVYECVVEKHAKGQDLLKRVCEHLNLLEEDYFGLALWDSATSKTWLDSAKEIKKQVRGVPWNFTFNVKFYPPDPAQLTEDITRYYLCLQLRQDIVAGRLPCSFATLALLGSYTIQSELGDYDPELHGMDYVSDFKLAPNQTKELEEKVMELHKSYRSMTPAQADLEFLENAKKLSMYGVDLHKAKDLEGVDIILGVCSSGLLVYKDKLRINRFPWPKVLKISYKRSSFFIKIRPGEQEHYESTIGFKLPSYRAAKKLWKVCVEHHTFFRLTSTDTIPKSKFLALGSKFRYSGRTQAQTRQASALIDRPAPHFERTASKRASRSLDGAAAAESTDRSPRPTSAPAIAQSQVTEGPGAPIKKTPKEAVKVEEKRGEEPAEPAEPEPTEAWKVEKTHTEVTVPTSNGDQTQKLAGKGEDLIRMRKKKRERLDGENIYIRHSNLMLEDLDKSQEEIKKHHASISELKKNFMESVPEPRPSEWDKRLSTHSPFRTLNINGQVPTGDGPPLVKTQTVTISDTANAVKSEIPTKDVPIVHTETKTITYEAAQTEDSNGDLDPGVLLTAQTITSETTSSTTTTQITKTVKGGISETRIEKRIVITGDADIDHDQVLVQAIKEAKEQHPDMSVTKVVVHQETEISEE
UniProt P41209: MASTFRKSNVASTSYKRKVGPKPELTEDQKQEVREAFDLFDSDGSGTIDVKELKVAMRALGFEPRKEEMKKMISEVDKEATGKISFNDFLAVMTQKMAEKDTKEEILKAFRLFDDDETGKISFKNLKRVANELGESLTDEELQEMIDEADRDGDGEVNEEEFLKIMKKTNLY
UniProt P43352: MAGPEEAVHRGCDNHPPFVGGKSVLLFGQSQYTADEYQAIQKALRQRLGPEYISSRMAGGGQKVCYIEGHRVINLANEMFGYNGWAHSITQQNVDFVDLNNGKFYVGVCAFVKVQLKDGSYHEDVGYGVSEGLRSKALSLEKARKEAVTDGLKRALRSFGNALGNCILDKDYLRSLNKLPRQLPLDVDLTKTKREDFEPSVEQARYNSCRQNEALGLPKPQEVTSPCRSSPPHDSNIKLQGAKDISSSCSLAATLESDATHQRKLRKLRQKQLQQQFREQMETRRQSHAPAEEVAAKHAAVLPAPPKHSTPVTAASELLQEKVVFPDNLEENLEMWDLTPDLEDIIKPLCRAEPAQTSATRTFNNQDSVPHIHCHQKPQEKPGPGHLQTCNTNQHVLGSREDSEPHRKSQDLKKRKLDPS
UniProt P40201: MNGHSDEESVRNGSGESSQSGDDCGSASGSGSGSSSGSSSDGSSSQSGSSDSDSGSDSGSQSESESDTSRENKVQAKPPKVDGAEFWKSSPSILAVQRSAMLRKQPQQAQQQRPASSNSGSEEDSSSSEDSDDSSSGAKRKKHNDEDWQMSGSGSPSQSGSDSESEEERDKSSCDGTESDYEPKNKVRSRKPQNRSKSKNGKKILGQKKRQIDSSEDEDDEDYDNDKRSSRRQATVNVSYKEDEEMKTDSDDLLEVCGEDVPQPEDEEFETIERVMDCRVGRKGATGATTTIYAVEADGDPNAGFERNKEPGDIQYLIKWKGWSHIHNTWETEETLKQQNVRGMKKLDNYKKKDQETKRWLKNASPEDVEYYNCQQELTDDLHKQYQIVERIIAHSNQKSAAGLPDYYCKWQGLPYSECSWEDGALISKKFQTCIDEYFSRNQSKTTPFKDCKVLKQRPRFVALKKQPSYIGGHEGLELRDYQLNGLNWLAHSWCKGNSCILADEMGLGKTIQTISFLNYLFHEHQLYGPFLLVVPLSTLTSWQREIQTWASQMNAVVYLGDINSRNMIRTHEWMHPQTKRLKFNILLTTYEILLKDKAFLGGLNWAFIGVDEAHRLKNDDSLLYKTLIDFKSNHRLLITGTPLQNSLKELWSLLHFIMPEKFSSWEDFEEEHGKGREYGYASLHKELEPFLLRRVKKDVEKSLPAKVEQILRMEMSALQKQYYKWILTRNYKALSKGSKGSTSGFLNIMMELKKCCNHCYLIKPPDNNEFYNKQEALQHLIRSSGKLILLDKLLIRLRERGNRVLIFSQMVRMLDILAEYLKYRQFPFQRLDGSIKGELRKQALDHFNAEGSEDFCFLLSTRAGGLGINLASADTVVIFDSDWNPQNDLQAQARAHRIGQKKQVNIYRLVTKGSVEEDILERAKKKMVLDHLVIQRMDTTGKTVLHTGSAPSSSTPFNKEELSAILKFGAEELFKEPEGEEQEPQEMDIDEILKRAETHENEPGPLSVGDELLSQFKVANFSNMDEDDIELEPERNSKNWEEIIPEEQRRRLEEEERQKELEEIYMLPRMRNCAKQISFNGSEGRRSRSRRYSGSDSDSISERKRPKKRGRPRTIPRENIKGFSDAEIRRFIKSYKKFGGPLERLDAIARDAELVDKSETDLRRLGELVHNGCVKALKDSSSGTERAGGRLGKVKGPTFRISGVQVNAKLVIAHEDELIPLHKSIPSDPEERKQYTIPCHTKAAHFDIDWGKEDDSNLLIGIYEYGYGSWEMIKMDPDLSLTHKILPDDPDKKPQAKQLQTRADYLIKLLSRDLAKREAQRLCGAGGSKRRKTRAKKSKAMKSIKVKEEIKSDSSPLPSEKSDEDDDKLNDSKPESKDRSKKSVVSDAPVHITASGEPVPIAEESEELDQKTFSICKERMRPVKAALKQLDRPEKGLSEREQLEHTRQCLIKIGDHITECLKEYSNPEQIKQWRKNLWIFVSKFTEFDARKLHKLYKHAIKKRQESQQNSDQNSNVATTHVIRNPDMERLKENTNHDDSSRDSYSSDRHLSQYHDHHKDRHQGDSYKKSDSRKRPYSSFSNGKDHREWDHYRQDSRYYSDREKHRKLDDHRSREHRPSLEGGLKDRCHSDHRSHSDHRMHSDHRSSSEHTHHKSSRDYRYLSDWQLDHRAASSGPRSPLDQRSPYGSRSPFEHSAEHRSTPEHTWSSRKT
UniProt P51908: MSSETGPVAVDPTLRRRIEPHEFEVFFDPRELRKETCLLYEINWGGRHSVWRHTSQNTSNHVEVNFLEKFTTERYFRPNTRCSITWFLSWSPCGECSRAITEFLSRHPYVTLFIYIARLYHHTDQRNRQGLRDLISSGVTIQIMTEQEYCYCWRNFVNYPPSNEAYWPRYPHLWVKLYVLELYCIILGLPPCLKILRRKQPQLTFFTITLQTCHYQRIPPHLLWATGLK

Compound in this experiment: CN[C@@H]1C[C@H]2O[C@@](C)([C@@H]1OC)n1c3ccccc3c3c4c(c5c6ccccc6n2c5c31)C(=O)NC4 [staurosporine]
The experiment can be described thus: log2 fold change of tryptic peptide abundance, ligand vs vehicle (limited proteolysis) (log2 ratio); higher = more trypsin-susceptible (destabilized). The following applies: ligand concentration: 20 uM; sample: mouse liver crude lysate; replicate design: treated separately.
Turning to “UniProt P50284 (peptide sequence: RHPEGEESPPCPAPR, peptide start residue: 260)”, the log2 fold change came to 0.0293.
The figure for “UniProt P50636 (peptide sequence: GHTGGASSGLPEGK, peptide start residue: 644)” is 0.0147; for “UniProt P53564 (peptide sequence: ASETGSDEAIK, peptide start residue: 660)” it is 0.655; for “UniProt P48193 (peptide sequence: NFMESVPEPRPSEWDKR, peptide start residue: 685)” it is 0.373.
With “UniProt P41209 (peptide sequence: LFDDDETGK, peptide start residue: 112)”, the log2 fold change is -0.0978.
Under “UniProt P43352 (peptide sequence: RQSHAPAEEVAAK, peptide start residue: 285)” stands 0.344; under “UniProt P40201 (peptide sequence: KQYTIPCHTK, peptide start residue: 1234)”, 0.703; under “UniProt P51908 (peptide sequence: IPPHLLWATGLK, peptide start residue: 218)”, -0.511.
